PubChem BioAssay AID504834 (National Center for Advancing Translational Sciences (NCATS), 2011)
Where “and” joins values, the source holds several entries; their conditions need not be identical. Equal values may be shown once. Out of some 320,000 compounds screened, about 22,000 (6.9%) were called active. The shares of active, inactive and inconclusive entries below differ from those in the screen. Calls come from the whole dose curve; as a rule, active = well fitted inhibition curve with a large enough effect; inconclusive = small, poorly fitted or top-dose-only effect, or another doubt; inactive = no such curve, though single readings can be large or run the other way. Where the call is inconclusive, the potency comes from a doubtful curve fit.

Assay: Primary qHTS for delayed death inhibitors of the malarial parasite plastid, 96 hour incubation
Conditions: P. falciparum luciferase reporter growth; series mostly up to 28.7 µM; activity change, negative = inhibition: at the top concentration
Outline: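 Erythrocytes infected with luciferase-expressing P. falciparum were dispensed at 2% hematocrit and 0.05% parasitemia (final), then incubated with compounds 96 hours at 37 C in 5% CO2. Luminescence after detection reagent addition reported growth.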
% is set by controls: 0 for no effect and ±100 for the full control effect; potency is the fitted concentration of half-maximal effect.

Row | SMILES | activity change, negative = inhibition | Potency
1 | Cc1sc(N2C(=O)C3C4C=CC(C4)C3C2=O)c(C#N)c1C (stereo not given) | inactive: -1.35% | 
2 | Cc1cccc(N2CC34C=CC(O3)C(C(=O)O)C4C2=O)c1 (stereo not given) | inactive: 13.4% | 
3 | Cn1c(COc2ccccc2)nnc1SCC(=O)NNC(=O)C1CCCCC1 | inactive: 37.6% | 
4 | CCOC(=O)Cn1c(C)cc(=O)c2ccccc21 |  | inconclusive: 0.0465 µM [inhibitor, full curve, poor fit]
5 | CSc1ccc(CCNC(=O)CCc2nnc3ccc(N4CCOCC4)nn23)cc1 |  | inconclusive: 1.47 µM [inhibitor, full curve, poor fit]
6 | O=C(NCc1ccco1)/C(=C/C=C\c1ccccc1)NC(=O)c1ccc(Br)o1 | inactive: 20.1% | 
7 | CCN1CCN(c2cc3c(nn2)Oc2ccccc2N3C)CC1 | inactive: 14.1% | 
8 | CC(=O)OCC(=O)[C@H]1CC[C@H]2[C@@H]3CCC4=CC(=O)CC[C@]4(C)[C@H]3CC[C@]12C |  | inconclusive: 12 µM [inhibitor, single point]
9 | COc1ccc(-c2noc(CCCC(=O)Nc3cccnc3)n2)cc1OC |  | inconclusive: 18.5 µM [inhibitor, single point]
10 | CCOc1ccc(C)cc1-n1nc2ccccc2n1 |  | inconclusive: 18.5 µM [inhibitor, partial curve, poor fit]
11 | CCn1c(CC(=O)Nc2ccc(C)cc2)nnc1SCC(=O)NCc1ccccc1 |  | inconclusive: 18.5 µM [inhibitor, single point]
12 | Cc1ccccc1NC(=O)Cn1nnc2ccccc21 |  | inconclusive: 18.5 µM [inhibitor, single point]
13 | COC(=O)c1ccc(C(=O)NC2CCCc3c2cnn3-c2ccc(C)c(C)c2)cc1 (stereo not given) |  | inconclusive: 18.5 µM [inhibitor, single point]
14 | CN(C)c1ccc(/C=N/NC(=O)c2ccccn2)cc1 | inactive: 31% | 
15 | Cc1nonc1CN(C)C(=O)CC1C(=O)NCCN1Cc1c(F)cccc1Cl (stereo not given) | inactive: 0.15% | 
16 | O=C(c1c(F)cccc1F)N1CCCC(c2nc(-c3ccc(Cl)cc3)no2)C1 (stereo not given) |  | inconclusive: 13.1 µM [inhibitor, single point]
17 | CC1CCN(CCNC(=O)C2CCCN(S(=O)(=O)c3cccc4nsnc34)C2)CC1 (stereo not given) |  | inconclusive: 11.7 µM [inhibitor, single point]
18 | C=CC[C@]12CCc3sccc3C1N(c1ccc(C(=O)OCC)cc1)C2=O (stereo not given in full) |  | inconclusive: 9.28 µM [inhibitor, partial curve, poor fit]
19 | C/C(=N\NC(=O)c1cccc(N2CCCC2=O)c1)c1ccc(N)cc1 |  | inconclusive: 10.4 µM [inhibitor, single point]
20 | O=[N+]([O-])c1ccccc1NCCOc1ccccc1 | inactive: 31.1% | 
21 | Cc1ccccc1C(=O)Nc1cccc(-c2ccc(N3CCOCC3)nn2)c1 | inactive: 51.6% | 
22 | COc1ccc(/C=C(/NC(=O)c2ccccc2)c2nc3ccccc3[nH]2)cc1OC |  | inconclusive: 0.294 µM [inhibitor, full curve, poor fit]
23 | COC(=O)N/N=C(\C)c1ccc(Br)cc1 | inactive: 5.92% | 
24 | O=C(C[n+]1ccccc1)Nc1ccccc1C(F)(F)F |  | inconclusive: 18.5 µM [inhibitor, single point]

Row | SMILES | activity change, negative = inhibition | Potency
25 | Cc1ccc(C(O)c2nc3ccccc3n2C)cc1 (stereo not given) |  | inconclusive: 1.04 µM [inhibitor, partial curve, poor fit]
26 | CN(C(=O)Cc1csc(-c2ccccc2)n1)c1c(N)n(Cc2ccccc2)c(=O)[nH]c1=O | inactive: 5.27% | 
27 | CCOC(=O)c1c(C)c(C(=O)Nc2ccc3c(c2)OCCO3)c(C)n1C | inactive: 40.5% | 
28 | O=c1[nH]c(C2CCN(S(=O)(=O)c3ccc(C(F)(F)F)cc3)CC2)nc2c1nnn2Cc1ccccc1 |  | inconclusive: 13.1 µM [inhibitor, partial curve, poor fit]
29 | CC[C@H](C)[C@@H](C(=O)N1CCNCC1)n1cc([C@@H](N)CC(C)C)nn1 |  | inconclusive: 18.5 µM [inhibitor, single point]
30 | N#CCCN(C(=O)COC(=O)c1cccc(S(=O)(=O)N2CCCC2)c1)c1ccc(F)cc1 |  | inconclusive: 2.94 µM [inhibitor, partial curve]
31 | CCN1CCN(S(=O)(=O)c2c[nH]c(C(=O)OC)c2)CC1 | inactive: -11.2% | 
32 | O=C(OCc1nnc(-c2ccc(Cl)cc2)o1)C12CC3CC(CC(O)(C3)C1)C2 | inactive: 203% | 
33 | CN(C)Cc1c(O)ccc2c(-c3ccccc3)cc(=O)oc12 |  | active: 9.28 µM
34 | O=C(/C=C/c1cccs1)N1CCN(c2ccccc2)CC1 |  | inconclusive: 14.7 µM [inhibitor, single point]
35 | COc1ccc(/C=N\NC(=O)c2ccccc2F)cc1COc1ccc(F)cc1 |  | inconclusive: 0.0041 µM [inhibitor, full curve, poor fit]
36 | Cc1ccc(Cl)cc1NC(=O)[C@@H]1CCC(=O)N1C1OC(=O)c2ccccc21 (stereo not given in full) |  | inconclusive: 0.0033 µM [inhibitor, full curve, poor fit]
37 | COc1ccc(OCc2nc(N)nc(Nc3ccccc3)n2)cc1 |  | inconclusive: 0.522 µM [inhibitor, full curve, poor fit]
38 | CCS(=O)(=O)c1nc(S(=O)(=O)c2ccc(Cl)cc2)c(NCCOC)s1 | inactive: -19.5% | 
39 | CCCOc1ccc(N2CC(C(=O)NC(C)C)CC2=O)cc1 (stereo not given) | inactive: -15.2% | 
40 | CCCCC(Sc1nc(N)c(NC(=O)c2ccc(OCC)cc2)c(=O)[nH]1)C(=O)O (stereo not given) |  | inconclusive: 0.0026 µM [inhibitor, full curve, poor fit]
41 | CC(=O)c1sc(NC(=O)COc2ccc([N+](=O)[O-])cc2)nc1C |  | active: 14.7 µM
42 | CCc1cc(C(=O)N2CCN(S(=O)(=O)c3ccc(Cl)cc3)CC2)sc1C |  | active: 9.28 µM
43 | CSc1cccc(NC(=S)N(Cc2ccccc2)Cc2cccnc2)c1 | inactive: 35.9% | 
44 | O=C(CSc1n[nH]c(=O)[nH]c1=O)c1ccccc1[N+](=O)[O-] |  | inconclusive: 20.8 µM [inhibitor, partial curve, poor fit]
45 | Cc1ccccc1C(=O)NCC(=O)OC(C)C(=O)NCc1ccco1 (stereo not given) | inactive: -1.56% | 
46 | COc1cccc(NC(=O)Nc2nnc(Cc3ccccc3)s2)c1 |  | inconclusive: 18.5 µM [inhibitor, single point]
47 | C/C(Cl)=C\Cn1c(O)c(N=NC(N)=S)c2cc(Br)ccc21 |  | inconclusive: 4.15 µM [inhibitor, full curve, poor fit]
48 | Cc1ccc(C)c(NC(=O)C2(C)CC3c4ccccc4C2c2ccccc23)c1 (stereo not given) |  | inconclusive: 4.15 µM [inhibitor, single point]

Quoted at random: 2 records from the list
Row | SMILES | activity change, negative = inhibition | Potency
32 | O=C(OCc1nnc(-c2ccc(Cl)cc2)o1)C12CC3CC(CC(O)(C3)C1)C2 | inactive: 203% | 
25 | Cc1ccc(C(O)c2nc3ccccc3n2C)cc1 (stereo not given) |  | inconclusive: 1.04 µM [inhibitor, partial curve, poor fit]

Further entries

Row | SMILES | activity change, negative = inhibition | Potency
49 | CCOC(=O)c1c(NC(=O)NC(C)(C)C)sc2c1CCN(C)C2 |  | active: 4.15 µM
50 | CCn1c(SCCOc2ccc(Cl)cc2)nnc1-c1cccs1 |  | active: 9.28 µM
51 | Cc1ccc(COC(=O)CN2C(=O)NC3(CCCCC3C)C2=O)cc1 (stereo not given) |  | inconclusive: 0.0329 µM [inhibitor, full curve, poor fit]
52 | CCN(CC(=O)Nc1ccc(OC)cc1)C(=O)c1ccc(N2CCCC2=O)cc1 | inactive: -18.7% | 
53 | CC(C)(C)NC(=O)C(c1ccco1)N(Cc1ccc2c(c1)OCO2)C(=O)Cn1nnc2ccccc21 (stereo not given) |  | active: 14.7 µM
54 | Cc1sc2ncnc(N3CCC(C(=O)Nc4nnc(CC(C)C)s4)CC3)c2c1C | inactive: -8.43% | 
55 | CCCCNS(=O)(=O)c1ccc2nc(-c3cccs3)cc(C(=O)NCC(OC)OC)c2c1 |  | inconclusive: 5.86 µM [inhibitor, partial curve, poor fit]
56 | CN1CC(c2ccccc2)C(c2ccc(Cl)cc2)=N1 (stereo not given) |  | inconclusive: 10.4 µM [inhibitor, partial curve, poor fit]
57 | N#C/C(=C\c1cn(-c2ccccc2)nc1-c1ccccc1)S(=O)(=O)c1ccccc1 |  | inconclusive: 11.7 µM [inhibitor, single point]
58 | N#CC(=NCc1cccnc1)C1=C(O)c2ccccc2C1=O |  | inconclusive: 18.5 µM [inhibitor, partial curve, poor fit]
59 | O=C(Nc1ncn[nH]1)c1ccc([N+](=O)[O-])cc1[N+](=O)[O-] |  | inconclusive: 0.329 µM [inhibitor, partial curve, poor fit]
60 | CCCN(C(=O)c1cccc(S(=O)(=O)N2CCCc3ccccc32)c1)C1CCS(=O)(=O)C1 (stereo not given) |  | inconclusive: 9.28 µM [inhibitor, single point]
61 | Cc1ccc(NC(=O)c2ccc3c(c2)C(=O)N(Cc2cccnc2)C3=O)c(C)c1 |  | inconclusive: 14.7 µM [inhibitor, single point]
62 | CCOC(=O)NC(CC(=O)O)c1ccc(OC)cc1 (stereo not given) |  | inconclusive: 9.28 µM [inhibitor, single point]
63 | C=CCSc1nnc(N2C(=O)C(O)=C(C(=O)c3ccco3)C2c2ccccc2F)s1 (stereo not given) | inactive: 15.9% | 
64 | CCOC(=O)c1c(S(=O)(=O)NCCc2ccc(OC)c(OC)c2)c(C)n(C)c1C |  | inconclusive: 0.208 µM [inhibitor, full curve]
65 | O=C1c2ccccc2C(=O)N1CCSc1nnc(-c2ccco2)n1Cc1ccccc1 | inactive: 10.6% | 
66 | CCN(C(=O)COC(=O)c1cc(=O)c2ccccc2o1)c1c(N)n(Cc2ccccc2)c(=O)[nH]c1=O |  | inconclusive: 18.5 µM [inhibitor, single point]
67 | Cc1ccc(NC(=O)c2cc(=O)c3ccccc3o2)cc1 | inactive: -17.6% | 
68 | O=c1[nH]c2ccccc2n1C1CCN(CCCC(c2ccc(F)cc2)c2ccc(F)cc2)CC1 |  | active: 6.01 µM and active: 2.62 µM
69 | Cc1cc(NC(=O)CC#N)n(-c2nc3ccccc3[nH]2)n1 |  | inconclusive: 1.65 µM [inhibitor, full curve]
70 | COc1ccc(OC)c(CN2CCN(CC(=O)Nc3ccccc3C(=O)NC3CC3)CC2)c1 |  | inconclusive: 10.4 µM [inhibitor, single point]

Whole records as entered above.
Cn1c(COc2ccccc2)nnc1SCC(=O)NNC(=O)C1CCCCC1 is listed with activity change, negative = inhibition: inactive: 37.6%
O=C(/C=C/c1cccs1)N1CCN(c2ccccc2)CC1 is listed with Potency: inconclusive: 14.7 µM [inhibitor, single point]
